# Positions count from the first letter of the chain named. In names and notes the source's numbering stands. No constants are given. Whether binding was seen depends on the method and setting. For some assays here: In cells and extracts the contact can be indirect. Some results given as binding are weak or reduced against the parent protein; the word gives no strength. Tags and fused reporters may be left off the sequences shown.
# Amino acid sequences for entries named in this document (tags omitted). A change or cut given only in a name is not applied to a line headed by its entry. Residues count along the entry.
# UniProt Q92743: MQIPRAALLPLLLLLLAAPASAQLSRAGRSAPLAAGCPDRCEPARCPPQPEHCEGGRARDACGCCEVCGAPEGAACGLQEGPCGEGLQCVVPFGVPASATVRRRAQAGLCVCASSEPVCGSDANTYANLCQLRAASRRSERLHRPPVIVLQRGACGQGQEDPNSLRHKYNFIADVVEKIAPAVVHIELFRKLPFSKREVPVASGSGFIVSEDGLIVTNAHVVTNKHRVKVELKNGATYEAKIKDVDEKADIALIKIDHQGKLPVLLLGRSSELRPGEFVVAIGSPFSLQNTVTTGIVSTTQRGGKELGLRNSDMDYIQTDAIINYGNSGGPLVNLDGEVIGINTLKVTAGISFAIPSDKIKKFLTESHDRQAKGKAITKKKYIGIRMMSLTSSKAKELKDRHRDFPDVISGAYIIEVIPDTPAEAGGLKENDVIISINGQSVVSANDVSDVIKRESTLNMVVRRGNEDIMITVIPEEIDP
# HTRA1 (high temperature requirement A serine peptidase 1) in ARPE-19 lysate (human (endogenous in ARPE-19)): residues 23-480 of Q92743
# T1: S163R-CTRP5 fused to the binding domain (BD) of GAL4 (UniProt Q9BXJ0)
# T1 sequence: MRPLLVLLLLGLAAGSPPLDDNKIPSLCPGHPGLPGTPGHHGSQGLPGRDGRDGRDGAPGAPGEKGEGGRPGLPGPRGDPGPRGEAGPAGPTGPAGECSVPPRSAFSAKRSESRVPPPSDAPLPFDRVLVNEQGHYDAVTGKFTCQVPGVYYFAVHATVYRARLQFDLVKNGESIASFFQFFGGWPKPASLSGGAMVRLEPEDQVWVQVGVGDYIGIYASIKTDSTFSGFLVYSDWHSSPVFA
# T2: S163R-CTRP5-V5 fusion protein (UniProt Q9BXJ0)
# T2 sequence: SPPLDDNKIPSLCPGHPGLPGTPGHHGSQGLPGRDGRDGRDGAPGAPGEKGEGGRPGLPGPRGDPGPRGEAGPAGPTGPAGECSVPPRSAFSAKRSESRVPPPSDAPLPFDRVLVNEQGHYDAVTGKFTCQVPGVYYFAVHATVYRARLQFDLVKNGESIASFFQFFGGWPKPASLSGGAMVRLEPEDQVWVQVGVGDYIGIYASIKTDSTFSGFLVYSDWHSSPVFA
# T3: WT-CTRP5-V5 fusion protein (UniProt Q9BXJ0)
# T3 sequence: T2 sequence with R148S
# T4: Full-length WT-CTRP5 fused to the binding domain (BD) of GAL4 (UniProt Q9BXJ0)
# T4 sequence: T1 sequence with R163S
# T5: BD-CTRP5 (∆PDZ-ligand) (aa 1-238) (UniProt Q9BXJ0)
# T5 sequence: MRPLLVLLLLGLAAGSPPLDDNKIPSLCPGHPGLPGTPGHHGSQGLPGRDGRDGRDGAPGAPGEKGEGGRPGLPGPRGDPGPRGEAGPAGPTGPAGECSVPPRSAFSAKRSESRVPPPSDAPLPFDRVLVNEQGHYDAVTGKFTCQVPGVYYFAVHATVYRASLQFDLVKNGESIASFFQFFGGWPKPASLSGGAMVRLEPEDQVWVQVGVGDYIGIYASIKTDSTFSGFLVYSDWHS
# B1: WT-CTRP5-V5 fusion protein (protein, UniProt Q9BXJ0 16-243)
# chain: T2 sequence with R148S
# B2: S163R-CTRP5-V5 fusion protein (protein, UniProt Q9BXJ0 16-243)
# chain: T2 sequence
# B3: Membrane frizzled-related protein (MFRP) (protein, UniProt Q9BY79 1-579)
# chain: MKDFSDVILCMEATESSKTEFCNPAFEPESGPPCPPPVFPEDASYSVPAPWHGRRPRGLRPDCRFSWLCVLLLSSLLLLLLGLLVAIILAQLQAAPPSGASHSPLPAGGLTTTTTTPTITTSQAAGTPKGQQESGVSPSPQSTCGGLLSGPRGFFSSPNYPDPYPPNTHCVWHIQVATDHAIQLKIEALSIESVASCLFDRLELSPEPEGPLLRVCGRVPPPTLNTNASHLLVVFVSDSSVEGFGFHAWYQAMAPGRGSCAHDEFRCDQLICLLPDSVCDGFANCADGSDETNCSAKFSGCGGNLTGLQGTFSTPSYLQQYPHQLLCTWHISVPAGHSIELQFHNFSLEAQDECKFDYVEVYETSSSGAFSLLGRFCGAEPPPHLVSSHHELAVLFRTDHGISSGGFSATYLAFNATENPCGPSELSCQAGGCKGVQWMCDMWRDCTDGSDDNCSGPLFPPPELACEPVQVEMCLGLSYNTTAFPNIWVGMITQEEVVEVLSGYKSLTSLPCYQHFRRLLCGLLVPRCTPLGSVLPPCRSVCQEAEHQCQSGLALLGTPWPFNCNRLPEAADLEACAQP
# B4: Full-length WT-CTRP5 fused to the binding domain (BD) of GAL4 (protein, UniProt Q9BXJ0 1-243)
# chain: T1 sequence with R163S
# Experiments:
# [1] = target: T1, S163R-CTRP5 fused to the binding domain (BD) of GAL4; assay: two-hybrid; pairwise Y2H; GAL4 BD baits (CTRP5 forms) and GAL4 AD preys; growth on SD-Leu-Trp-His with 3-AT (1-10 mM) against SD-Leu-Trp; serial 10-fold dilutions
# [2] = target: T2, S163R-CTRP5-V5 fusion protein; assay: co-IP; lysates of ARPE-19 cells overexpressing WT-CTRP5-V5 or S163R-CTRP5-V5; IP with HTRA1 antibody, and reverse IP with anti-V5 antibody; immunoblots with anti-V5 and HTRA1 antibodies; normal rabbit IgG as control
# [3] = target: T3, WT-CTRP5-V5 fusion protein; assay: as above
# [4] = target: T4, Full-length WT-CTRP5 fused to the binding domain (BD) of GAL4; assay: two-hybrid; pairwise Y2H; GAL4 BD baits (CTRP5 forms) and GAL4 AD preys; growth on SD-Leu-Trp-His with 3-AT (1-10 mM) against SD-Leu-Trp; serial 10-fold dilutions
# [5] = target: T4, Full-length WT-CTRP5 fused to the binding domain (BD) of GAL4; assay: two-hybrid; Matchmaker Gold Y2H library screen by mating; BD-CTRP5 as bait against a universal, normalized human cDNA library (TaKaRa) in pGADT7-RecAB; high-stringency plating
# [6] = target: HTRA1 (high temperature requirement A serine peptidase 1) in ARPE-19 lysate (human (endogenous in ARPE-19)) (UniProt Q92743); assay: co-IP; lysates of ARPE-19 cells overexpressing WT-CTRP5-V5 or S163R-CTRP5-V5; IP with HTRA1 antibody, and reverse IP with anti-V5 antibody; immunoblots with anti-V5 and HTRA1 antibodies; normal rabbit IgG as control
# [7] = target: T4, Full-length WT-CTRP5 fused to the binding domain (BD) of GAL4; assay: two-hybrid; pairwise Y2H; GAL4 BD baits (CTRP5 forms) and GAL4 AD preys; growth on SD-Leu-Trp-His with 3-AT (1-10 mM) against SD-Leu-Trp; serial 10-fold dilutions; remark: listed apart in the source
# [8] = target: T5, BD-CTRP5 (∆PDZ-ligand) (aa 1-238); assay: as above
molecule,measurement,setting,value
ΔFS-HTRA1 (144-480 aa) fused with the AD domain of GAL4 (from UniProt Q92743 144-480) (domain or fragment),binding,[1],binds
HTRA1 (high temperature requirement A serine peptidase 1) in ARPE-19 lysate (from UniProt Q92743 23-480) (enzyme),binding,[2],binds
same,binding,[3],binds
AD-CL53 HTRA1 (306-480aa) (from UniProt Q92743 306-480) (domain or fragment),binding,[4],binds
same,binding,[1],binds
same,binding,[5],binds
B1,binding,[6],binds
B2,binding,[6],binds
B3,binding,[7],binds
B4,binding,[8],binds
same,binding,[7],binds

# Reference: publication PMC6826137
